Test results taken from the supplement of paper PMC12067093, “Discovery and optimisation of a covalent ligand for TRIM25 and its application to targeted protein ubiquitination” (Chemical Science, 2025).
The list shows a part of the results.

Sequences of proteins named here, by UniProt entry; tags and fusion partners are left off. A change or cut given only in a name is not applied to a line headed by its entry.
UniProt O00170: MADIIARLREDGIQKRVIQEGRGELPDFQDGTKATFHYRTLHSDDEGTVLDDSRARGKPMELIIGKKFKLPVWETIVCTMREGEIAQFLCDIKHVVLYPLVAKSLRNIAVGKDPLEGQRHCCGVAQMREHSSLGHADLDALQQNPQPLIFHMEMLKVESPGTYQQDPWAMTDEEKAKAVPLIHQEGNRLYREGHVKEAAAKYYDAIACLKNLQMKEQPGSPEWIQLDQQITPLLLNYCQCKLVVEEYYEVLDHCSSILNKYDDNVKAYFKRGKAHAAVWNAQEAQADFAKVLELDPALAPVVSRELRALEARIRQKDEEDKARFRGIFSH
UniProt O43865, whole entry, looked up: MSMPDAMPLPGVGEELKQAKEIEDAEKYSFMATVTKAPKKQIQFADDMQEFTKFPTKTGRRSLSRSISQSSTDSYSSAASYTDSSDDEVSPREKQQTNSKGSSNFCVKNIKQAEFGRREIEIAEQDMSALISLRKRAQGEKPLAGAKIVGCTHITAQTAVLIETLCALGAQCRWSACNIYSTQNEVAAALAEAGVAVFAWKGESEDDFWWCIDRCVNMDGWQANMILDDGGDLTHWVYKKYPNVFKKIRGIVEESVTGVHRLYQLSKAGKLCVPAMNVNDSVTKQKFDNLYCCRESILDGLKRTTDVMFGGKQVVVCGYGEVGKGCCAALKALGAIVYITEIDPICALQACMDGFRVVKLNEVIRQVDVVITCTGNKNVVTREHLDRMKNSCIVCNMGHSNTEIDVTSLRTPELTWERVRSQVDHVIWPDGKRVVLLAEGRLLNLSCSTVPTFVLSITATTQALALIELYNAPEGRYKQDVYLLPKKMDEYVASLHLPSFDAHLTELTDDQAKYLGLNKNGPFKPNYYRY
UniProt P13716: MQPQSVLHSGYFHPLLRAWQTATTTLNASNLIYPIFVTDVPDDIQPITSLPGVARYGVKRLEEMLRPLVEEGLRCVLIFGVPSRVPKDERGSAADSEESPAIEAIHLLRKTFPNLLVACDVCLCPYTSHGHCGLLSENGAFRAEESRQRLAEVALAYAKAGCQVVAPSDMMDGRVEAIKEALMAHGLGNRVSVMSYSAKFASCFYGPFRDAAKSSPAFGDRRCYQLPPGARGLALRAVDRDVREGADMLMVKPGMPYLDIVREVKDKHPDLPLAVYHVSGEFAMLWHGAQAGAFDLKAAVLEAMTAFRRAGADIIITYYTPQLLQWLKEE
UniProt Q96HN2, whole entry, looked up: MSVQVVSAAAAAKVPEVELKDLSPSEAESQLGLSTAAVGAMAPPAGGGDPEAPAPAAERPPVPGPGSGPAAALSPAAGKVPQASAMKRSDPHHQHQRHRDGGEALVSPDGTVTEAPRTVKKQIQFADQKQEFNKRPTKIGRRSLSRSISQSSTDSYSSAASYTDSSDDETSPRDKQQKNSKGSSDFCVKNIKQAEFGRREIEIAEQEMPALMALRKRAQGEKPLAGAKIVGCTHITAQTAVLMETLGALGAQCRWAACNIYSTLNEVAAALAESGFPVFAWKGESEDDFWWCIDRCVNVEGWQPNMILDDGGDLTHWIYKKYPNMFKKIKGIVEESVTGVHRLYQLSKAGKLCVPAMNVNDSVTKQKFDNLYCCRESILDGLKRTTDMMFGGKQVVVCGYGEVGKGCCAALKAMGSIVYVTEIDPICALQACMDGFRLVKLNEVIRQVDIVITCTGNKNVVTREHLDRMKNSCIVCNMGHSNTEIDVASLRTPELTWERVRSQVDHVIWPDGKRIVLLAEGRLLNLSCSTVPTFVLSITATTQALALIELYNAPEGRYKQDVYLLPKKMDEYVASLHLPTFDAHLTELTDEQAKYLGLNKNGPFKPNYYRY
UniProt O00116: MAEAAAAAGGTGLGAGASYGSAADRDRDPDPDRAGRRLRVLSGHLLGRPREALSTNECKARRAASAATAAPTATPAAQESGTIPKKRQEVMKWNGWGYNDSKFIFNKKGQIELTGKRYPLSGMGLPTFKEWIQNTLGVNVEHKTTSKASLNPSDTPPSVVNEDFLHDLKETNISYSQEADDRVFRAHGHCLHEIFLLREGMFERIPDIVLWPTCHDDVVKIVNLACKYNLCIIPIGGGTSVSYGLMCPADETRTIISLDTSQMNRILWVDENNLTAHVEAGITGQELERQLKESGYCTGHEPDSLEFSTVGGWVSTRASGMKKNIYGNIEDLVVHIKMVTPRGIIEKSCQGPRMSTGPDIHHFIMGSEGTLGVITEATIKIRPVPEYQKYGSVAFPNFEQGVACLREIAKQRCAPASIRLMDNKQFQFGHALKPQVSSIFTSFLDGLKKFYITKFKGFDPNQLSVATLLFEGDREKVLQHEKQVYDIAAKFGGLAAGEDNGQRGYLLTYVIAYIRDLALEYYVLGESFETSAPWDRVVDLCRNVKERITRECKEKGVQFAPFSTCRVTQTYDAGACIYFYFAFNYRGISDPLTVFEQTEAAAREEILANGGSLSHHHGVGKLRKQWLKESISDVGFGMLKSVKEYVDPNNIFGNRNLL
UniProt Q9P2R3: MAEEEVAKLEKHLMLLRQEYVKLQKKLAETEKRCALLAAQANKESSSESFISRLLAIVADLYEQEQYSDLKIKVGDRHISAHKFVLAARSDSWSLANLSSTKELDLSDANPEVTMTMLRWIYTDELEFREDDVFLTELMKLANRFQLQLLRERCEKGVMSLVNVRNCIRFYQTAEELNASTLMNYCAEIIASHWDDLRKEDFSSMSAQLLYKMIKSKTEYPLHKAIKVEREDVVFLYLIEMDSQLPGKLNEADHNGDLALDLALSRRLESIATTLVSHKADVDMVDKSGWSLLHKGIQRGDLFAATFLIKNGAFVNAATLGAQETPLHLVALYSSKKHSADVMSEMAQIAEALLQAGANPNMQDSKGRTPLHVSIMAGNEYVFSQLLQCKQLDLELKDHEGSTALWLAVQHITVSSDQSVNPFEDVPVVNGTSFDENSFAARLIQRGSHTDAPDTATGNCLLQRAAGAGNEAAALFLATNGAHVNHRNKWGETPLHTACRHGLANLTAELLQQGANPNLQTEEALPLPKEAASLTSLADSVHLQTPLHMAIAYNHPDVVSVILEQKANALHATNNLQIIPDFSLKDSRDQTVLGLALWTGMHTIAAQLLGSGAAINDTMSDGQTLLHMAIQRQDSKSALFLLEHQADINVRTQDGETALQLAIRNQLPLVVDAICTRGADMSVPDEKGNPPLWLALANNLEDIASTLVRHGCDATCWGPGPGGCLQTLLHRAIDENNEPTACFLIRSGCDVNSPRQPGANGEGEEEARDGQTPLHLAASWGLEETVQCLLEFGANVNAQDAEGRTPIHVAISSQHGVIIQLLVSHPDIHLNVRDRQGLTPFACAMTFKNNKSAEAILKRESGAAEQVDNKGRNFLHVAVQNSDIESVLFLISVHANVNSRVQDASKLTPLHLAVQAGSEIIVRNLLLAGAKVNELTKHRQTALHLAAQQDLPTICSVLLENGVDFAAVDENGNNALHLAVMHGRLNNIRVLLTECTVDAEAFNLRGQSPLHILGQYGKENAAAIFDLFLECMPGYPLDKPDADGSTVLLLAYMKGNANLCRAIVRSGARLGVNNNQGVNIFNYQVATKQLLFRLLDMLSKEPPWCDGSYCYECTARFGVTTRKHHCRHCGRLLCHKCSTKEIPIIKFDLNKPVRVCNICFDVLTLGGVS
UniProt Q9H1A4, whole entry, looked up: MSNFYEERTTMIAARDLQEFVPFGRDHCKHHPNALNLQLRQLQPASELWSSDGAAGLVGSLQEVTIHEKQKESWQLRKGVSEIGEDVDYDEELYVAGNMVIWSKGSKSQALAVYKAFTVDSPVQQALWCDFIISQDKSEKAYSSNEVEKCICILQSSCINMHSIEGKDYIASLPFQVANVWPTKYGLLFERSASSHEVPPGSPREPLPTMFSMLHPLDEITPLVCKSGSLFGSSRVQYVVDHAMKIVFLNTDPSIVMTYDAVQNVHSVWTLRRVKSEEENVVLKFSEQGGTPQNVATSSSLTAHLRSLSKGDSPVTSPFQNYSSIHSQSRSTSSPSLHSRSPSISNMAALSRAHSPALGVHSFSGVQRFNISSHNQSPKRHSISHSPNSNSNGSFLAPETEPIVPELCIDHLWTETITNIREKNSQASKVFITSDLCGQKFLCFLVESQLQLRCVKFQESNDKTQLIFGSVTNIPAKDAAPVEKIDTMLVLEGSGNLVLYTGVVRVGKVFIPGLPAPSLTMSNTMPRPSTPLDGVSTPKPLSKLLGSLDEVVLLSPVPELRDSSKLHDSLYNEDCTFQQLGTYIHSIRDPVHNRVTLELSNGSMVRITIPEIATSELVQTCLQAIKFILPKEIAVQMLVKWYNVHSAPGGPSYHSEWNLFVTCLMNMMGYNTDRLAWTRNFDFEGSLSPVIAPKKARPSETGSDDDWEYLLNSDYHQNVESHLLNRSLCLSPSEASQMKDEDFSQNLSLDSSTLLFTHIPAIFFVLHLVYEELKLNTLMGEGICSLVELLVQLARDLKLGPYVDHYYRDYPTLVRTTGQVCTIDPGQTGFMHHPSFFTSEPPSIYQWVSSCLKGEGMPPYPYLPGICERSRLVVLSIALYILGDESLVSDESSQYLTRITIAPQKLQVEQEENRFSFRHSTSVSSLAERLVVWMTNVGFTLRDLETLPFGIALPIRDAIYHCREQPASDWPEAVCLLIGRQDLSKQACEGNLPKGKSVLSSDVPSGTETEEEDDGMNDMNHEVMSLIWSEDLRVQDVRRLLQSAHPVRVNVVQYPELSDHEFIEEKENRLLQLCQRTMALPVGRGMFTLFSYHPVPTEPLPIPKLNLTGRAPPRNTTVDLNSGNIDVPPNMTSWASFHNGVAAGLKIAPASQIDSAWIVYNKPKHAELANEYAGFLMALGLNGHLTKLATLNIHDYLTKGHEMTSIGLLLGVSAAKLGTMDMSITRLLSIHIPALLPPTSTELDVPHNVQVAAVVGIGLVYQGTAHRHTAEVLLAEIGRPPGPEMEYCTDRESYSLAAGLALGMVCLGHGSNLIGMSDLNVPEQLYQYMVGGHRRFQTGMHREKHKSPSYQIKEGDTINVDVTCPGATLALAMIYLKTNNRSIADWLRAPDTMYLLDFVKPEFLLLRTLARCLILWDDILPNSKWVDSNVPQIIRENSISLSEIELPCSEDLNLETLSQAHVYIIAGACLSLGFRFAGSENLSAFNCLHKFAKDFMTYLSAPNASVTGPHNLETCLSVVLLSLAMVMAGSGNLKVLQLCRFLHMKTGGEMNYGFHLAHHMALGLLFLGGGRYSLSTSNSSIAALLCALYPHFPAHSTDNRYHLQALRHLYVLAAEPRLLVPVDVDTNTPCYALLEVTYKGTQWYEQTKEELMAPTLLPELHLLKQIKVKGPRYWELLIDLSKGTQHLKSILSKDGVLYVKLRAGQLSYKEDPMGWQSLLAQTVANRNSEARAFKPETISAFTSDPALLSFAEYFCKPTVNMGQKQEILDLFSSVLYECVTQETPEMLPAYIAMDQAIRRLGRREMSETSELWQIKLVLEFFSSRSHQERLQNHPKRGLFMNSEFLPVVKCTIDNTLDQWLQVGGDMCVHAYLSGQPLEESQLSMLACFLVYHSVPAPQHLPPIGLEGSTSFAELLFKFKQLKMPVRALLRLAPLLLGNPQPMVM
UniProt P00568: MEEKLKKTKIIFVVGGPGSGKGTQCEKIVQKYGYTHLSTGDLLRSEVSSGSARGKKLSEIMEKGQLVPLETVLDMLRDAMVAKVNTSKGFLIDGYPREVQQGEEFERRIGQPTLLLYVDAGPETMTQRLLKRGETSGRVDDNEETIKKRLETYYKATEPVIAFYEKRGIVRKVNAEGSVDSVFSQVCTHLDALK
UniProt P54886: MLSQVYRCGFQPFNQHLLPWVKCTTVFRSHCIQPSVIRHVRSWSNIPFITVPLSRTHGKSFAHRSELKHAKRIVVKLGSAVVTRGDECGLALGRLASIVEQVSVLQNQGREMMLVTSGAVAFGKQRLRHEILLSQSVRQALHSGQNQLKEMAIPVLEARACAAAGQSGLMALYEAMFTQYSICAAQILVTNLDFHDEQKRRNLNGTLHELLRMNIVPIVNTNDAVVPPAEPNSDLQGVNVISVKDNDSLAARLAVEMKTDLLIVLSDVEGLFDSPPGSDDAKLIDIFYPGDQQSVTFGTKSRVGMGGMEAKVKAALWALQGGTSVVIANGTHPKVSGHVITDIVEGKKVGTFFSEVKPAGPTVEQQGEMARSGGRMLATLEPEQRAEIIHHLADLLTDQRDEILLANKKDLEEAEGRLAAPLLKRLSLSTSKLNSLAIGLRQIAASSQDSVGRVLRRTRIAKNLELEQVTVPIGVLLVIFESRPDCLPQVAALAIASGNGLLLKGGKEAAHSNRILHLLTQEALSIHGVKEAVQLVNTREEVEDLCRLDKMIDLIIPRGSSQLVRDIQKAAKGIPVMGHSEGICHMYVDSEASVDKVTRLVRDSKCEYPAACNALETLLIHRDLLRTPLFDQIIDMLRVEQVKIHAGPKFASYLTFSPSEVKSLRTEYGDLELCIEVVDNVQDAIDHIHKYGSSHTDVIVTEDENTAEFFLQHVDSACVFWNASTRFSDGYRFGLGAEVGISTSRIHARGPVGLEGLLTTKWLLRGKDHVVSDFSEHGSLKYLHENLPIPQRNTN

What follows are targets tested with Cc1cc(ccc1-c1ccccc1)C(=O)N1CCCN(CC1)C(=O)CCl [compound 10] (assay: probe-labelled cysteine peptide fold change vs DMSO (competition) (log2 fold change); higher = less target engagement (more negative = stronger competition)). Conditions: 10 µM; THP-1; incubation time: 4 h.
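Also: competitive profiling in live THP-1 cells: cysteine peptides tagged with an iodoacetamide desthiobiotin (IA-DTB) probe, intensity after compound treatment relative to DMSO-treated cells.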

| Target | probe-labelled cysteine peptide fold change |
| --- | --- |
| AIP_O00170_78_FKLPVWETIVCTMR (UniProt O00170) | -0.305 |
| AHCYL1_O43865_211_GESEDDFWWCIDR (UniProt O43865) | 0.307 |
| AMN1_Q8IY45_230_ILLFHGCPLITDHSR (UniProt Q8IY45) | 0.224 |
| ANK2_Q01484_375_APVDDVTLDYLTALHVAAHCGHYR (UniProt Q01484) | -0.0423 |
| ALDOC_P09972_73_KCIGGVIFFHETLYQK (UniProt P09972) | 0.224 |
| ALCAM_Q13740_270_CLGNGNPPPEEFLFYLPGQPEGIR (UniProt Q13740) | -0.0239 |
| ALG2_Q9H553_70_CAGDWLPR (UniProt Q9H553) | -0.126 |
| ALAD_P13716_162_AGCQVVAPSDMMDGRVEAIK (UniProt P13716) | -0.0543 |
| AMFR_Q9UKV5_364_KLPCGHLFHNSCLR (UniProt Q9UKV5) | 0.0577 |
| AHCYL2_Q96HN2_454_QVDIVITCTGNK (UniProt Q96HN2) | 0.0592 |
| AGPS_O00116_247_YNLCIIPIGGGTSVSYGLMCPADETR (UniProt O00116) | -0.128 |
| ALDH3A2_P51648_50_DILTAIAADLCK (UniProt P51648) | -0.0608 |
| ANKFY1_Q9P2R3_712+716_HGCDATCWGPGPGGCLQTLLHR (UniProt Q9P2R3) | 0.00946 |
| ANAPC1_Q9H1A4_575_LHDSLYNEDCTFQQLGTYIHSIRDPVHNR (UniProt Q9H1A4) | 0.0704 |
| AHRR_A9YTQ3_650_GEQSCTCR (UniProt A9YTQ3) | -0.131 |
| AK1_P00568_187_KVNAEGSVDSVFSQVCTHLDALK (UniProt P00568) | -0.0662 |
| AGPS_O00116_297_ESGYCTGHEPDSLEFSTVGGWVSTR (UniProt O00116) | -0.105 |
| AKR7A2_O43488_132_LQCPQVDLFYLHAPDHGTPVEETLHACQR (UniProt O43488) | -0.093 |
| AKR1B1_P15121_187_PAVNQIECHPYLTQEK (UniProt P15121) | -0.0518 |
| ALDH16A1_Q8IZ83_39_CLGHYVNGK (UniProt Q8IZ83) | -0.0412 |

| Target | probe-labelled cysteine peptide fold change |
| --- | --- |
| AHCYL2_Q96HN2_232_IVGCTHITAQTAVLMETLGALGAQCR (UniProt Q96HN2) | 0.123 |
| ANK3_Q12955_4233_LDDSPDQCR (UniProt Q12955) | 0.0929 |
| ALDH18A1_P54886_674_TEYGDLELCIEVVDNVQDAIDHIHK (UniProt P54886) | 0.112 |
| AIP_O00170_78_LPVWETIVCTMR (UniProt O00170) | -0.308 |
| ALDH9A1_P49189_484_TVCVEMGDVESAF (UniProt P49189) | -0.0957 |
| AKAP8L_Q9ULX6_128_LDMVPHLETDMMQGGVYGSGGERYDSYESCDSR (UniProt Q9ULX6) | -0.185 |
| ANAPC7_Q9UJX3_259_AISTICSLEK (UniProt Q9UJX3) | -0.0861 |
| AMPD3_Q01432_47_DALSLFTVPEDCPIGQK (UniProt Q01432) | -0.0813 |
| ALDH18A1_P54886_674_SLRTEYGDLELCIEVVDNVQDAIDHIHK (UniProt P54886) | 0.115 |
| AKAP8L_Q9ULX6_487_KVEAAHCAACDLFIPMQFGIIQK (UniProt Q9ULX6) | 0.0426 |
| AGPS_O00116_58_EALSTNECK (UniProt O00116) | -0.66 |
| ANKHD1_Q8IWZ3_1716_GGCNITAIQDVTGAHIDVDK (UniProt Q8IWZ3) | 0.183 |
| ANAPC1_Q9H1A4_1630_LLVPVDVDTNTPCYALLEVTYK (UniProt Q9H1A4) | -0.151 |
| AHCYL1_O43865_272_LCVPAMNVNDSVTK (UniProt O43865) | 0.0131 |
| AHCYL1_O43865_215_CVNMDGWQANMILDDGGDLTHWVYKK (UniProt O43865) | 0.00395 |
| AMBP_P02760_281_ECLQTCR (UniProt P02760) | -0.538 |
| AKAP1_Q92667_102_LPAEPPALLQTHPPCR (UniProt Q92667) | -0.222 |
| AHSA1_O95433_301_NGETELCMEGR (UniProt O95433) | -0.0489 |
| ANKFY1_Q9P2R3_460_GSHTDAPDTATGNCLLQR (UniProt Q9P2R3) | -0.104 |
